# Source: the supplement of paper PMC12819154, “High-throughput peptide-centric local stability assay extends protein–ligand identification to membrane proteins, tissues and bacteria” (Nature Structural & Molecular Biology, 2025)
# By UniProt entry, the sequences of proteins in these tests, tags left out. Where a name states a change or a piece, a line headed by the entry shows the natural chain unless it says otherwise.
# UniProt Q8K304: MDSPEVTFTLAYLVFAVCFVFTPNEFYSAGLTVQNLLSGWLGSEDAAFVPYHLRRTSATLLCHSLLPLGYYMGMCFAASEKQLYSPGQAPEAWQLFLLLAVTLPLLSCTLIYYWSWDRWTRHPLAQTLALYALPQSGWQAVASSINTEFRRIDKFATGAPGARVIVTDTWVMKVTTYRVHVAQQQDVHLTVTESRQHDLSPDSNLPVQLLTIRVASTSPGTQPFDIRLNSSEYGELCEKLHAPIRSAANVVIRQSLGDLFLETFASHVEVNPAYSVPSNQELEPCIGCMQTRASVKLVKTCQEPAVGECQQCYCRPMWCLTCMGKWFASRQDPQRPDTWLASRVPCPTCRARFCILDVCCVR
# UniProt Q8R0A5: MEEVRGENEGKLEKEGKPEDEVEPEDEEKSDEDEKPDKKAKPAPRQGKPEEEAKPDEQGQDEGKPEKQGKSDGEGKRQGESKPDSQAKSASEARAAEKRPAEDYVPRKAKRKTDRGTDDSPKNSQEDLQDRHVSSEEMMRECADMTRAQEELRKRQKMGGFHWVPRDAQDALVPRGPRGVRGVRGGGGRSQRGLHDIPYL
# UniProt Q8R180: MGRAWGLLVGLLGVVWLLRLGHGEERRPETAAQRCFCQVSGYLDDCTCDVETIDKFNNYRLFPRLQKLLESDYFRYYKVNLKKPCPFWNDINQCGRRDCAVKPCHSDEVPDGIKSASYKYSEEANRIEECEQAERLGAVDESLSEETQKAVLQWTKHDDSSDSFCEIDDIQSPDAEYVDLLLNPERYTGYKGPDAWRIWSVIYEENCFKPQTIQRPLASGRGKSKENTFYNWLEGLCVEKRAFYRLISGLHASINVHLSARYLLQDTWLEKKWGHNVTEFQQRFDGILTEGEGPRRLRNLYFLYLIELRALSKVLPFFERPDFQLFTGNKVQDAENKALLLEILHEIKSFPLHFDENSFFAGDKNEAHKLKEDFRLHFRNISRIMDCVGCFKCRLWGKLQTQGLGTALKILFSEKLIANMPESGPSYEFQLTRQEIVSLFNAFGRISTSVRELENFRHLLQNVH
# UniProt Q8K442: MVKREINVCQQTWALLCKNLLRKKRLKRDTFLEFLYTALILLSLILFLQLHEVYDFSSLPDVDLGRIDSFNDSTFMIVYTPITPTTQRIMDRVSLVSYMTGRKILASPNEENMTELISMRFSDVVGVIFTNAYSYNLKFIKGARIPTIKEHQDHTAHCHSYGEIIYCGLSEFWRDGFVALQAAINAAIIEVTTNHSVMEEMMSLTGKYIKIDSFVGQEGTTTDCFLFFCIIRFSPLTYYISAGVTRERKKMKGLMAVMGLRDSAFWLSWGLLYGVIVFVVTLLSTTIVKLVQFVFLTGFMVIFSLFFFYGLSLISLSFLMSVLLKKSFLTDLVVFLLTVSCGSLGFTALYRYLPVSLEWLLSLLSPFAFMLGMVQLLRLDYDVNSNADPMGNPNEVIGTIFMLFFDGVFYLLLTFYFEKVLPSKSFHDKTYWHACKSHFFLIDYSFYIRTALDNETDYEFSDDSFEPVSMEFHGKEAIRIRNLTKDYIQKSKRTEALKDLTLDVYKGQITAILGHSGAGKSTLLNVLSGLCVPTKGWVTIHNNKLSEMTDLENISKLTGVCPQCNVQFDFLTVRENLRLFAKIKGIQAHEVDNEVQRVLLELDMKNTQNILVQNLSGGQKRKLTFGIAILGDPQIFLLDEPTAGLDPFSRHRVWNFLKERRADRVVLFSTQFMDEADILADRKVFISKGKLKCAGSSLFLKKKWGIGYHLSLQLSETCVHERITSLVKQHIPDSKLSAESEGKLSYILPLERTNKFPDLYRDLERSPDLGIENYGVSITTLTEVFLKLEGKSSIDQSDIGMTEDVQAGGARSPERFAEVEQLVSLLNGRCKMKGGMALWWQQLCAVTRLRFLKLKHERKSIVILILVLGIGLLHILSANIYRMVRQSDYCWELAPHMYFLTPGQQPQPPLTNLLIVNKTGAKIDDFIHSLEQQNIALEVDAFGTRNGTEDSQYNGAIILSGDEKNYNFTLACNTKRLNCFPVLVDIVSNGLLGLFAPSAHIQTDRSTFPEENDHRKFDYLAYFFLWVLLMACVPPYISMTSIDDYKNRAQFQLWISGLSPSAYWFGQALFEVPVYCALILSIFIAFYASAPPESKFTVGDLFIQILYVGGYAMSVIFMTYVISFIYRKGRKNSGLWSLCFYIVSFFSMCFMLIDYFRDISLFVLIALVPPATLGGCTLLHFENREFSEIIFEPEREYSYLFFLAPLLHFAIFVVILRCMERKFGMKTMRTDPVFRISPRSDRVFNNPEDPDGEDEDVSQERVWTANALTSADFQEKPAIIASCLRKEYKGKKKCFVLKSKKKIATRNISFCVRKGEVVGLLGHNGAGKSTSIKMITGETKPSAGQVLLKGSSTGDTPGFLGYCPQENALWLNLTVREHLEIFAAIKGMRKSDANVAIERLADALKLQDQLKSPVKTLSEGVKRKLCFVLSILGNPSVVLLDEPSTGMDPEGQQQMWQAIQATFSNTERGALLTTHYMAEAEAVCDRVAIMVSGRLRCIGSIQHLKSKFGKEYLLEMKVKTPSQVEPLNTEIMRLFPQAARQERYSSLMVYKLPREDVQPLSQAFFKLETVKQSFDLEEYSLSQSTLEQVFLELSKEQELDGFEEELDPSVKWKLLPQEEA
# UniProt Q8R1S4: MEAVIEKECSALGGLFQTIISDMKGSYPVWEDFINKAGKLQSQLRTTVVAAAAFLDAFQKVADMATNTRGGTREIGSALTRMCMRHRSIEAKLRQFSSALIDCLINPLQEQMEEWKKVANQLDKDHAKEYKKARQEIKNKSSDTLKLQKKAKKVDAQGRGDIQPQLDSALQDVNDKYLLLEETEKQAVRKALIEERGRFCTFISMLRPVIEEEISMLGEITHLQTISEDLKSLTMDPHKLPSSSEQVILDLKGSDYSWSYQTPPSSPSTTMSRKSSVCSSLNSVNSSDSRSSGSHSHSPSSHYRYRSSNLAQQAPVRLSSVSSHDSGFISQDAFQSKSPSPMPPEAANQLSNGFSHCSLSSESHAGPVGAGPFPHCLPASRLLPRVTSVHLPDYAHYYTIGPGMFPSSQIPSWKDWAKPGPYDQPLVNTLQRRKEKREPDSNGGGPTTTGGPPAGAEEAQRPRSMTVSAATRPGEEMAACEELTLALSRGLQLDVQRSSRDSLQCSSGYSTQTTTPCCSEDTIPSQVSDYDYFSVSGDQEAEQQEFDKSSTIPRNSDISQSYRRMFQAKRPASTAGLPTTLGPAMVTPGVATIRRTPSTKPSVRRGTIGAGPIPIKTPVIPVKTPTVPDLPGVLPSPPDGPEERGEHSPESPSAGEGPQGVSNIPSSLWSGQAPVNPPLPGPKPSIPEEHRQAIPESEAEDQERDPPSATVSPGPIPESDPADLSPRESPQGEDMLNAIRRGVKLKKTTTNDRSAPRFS
# UniProt Q8K1I3: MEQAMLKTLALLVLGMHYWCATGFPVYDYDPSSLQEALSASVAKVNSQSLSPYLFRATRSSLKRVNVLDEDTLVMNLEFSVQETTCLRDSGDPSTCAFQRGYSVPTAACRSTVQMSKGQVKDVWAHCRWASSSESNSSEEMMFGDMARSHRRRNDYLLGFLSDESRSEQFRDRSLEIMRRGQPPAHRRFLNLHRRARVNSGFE
# The other results are listed elsewhere or left out. Most values lie at the level of the controls, where differences are scatter.
# Compound: CN[C@@H]1C[C@H]2O[C@@](C)([C@@H]1OC)n1c3ccccc3c3c4c(c5c6ccccc6n2c5c31)C(=O)NC4 [staurosporine]
# Test: log2 fold change of tryptic peptide abundance, ligand vs vehicle (limited proteolysis) (log2 ratio); higher = more trypsin-susceptible (destabilized)
# Details: ligand concentration: 20 uM; sample: mouse liver crude lysate; replicate design: treated separately
row,Target,log2 fold change
1,"UniProt Q8K304 (peptide sequence: VIVTDTWVMK, peptide start residue: 164)",0.37
2,"UniProt Q8R0A5 (peptide sequence: MEEVRGENEGKLEK, peptide start residue: 1)",-0.251
3,"UniProt Q8R180 (peptide sequence: YLLQDTWLEKK, peptide start residue: 262)",0.295
4,"UniProt Q8K442 (peptide sequence: KGEVVGLLGHNGAGK, peptide start residue: 1314)",0.0508
5,"UniProt Q8R1S4 (peptide sequence: RTPSTKPSVR, peptide start residue: 595)",-0.644
6,"UniProt Q8K1I3 (peptide sequence: RNDYLLGFLSDESR, peptide start residue: 153)",-0.488
